# According to the supplement of paper PMC7666118:
# Sequences of proteins named here, by UniProt entry; tags and fusion partners are left off. A change or cut given only in a name is not applied to a line headed by its entry.
# UniProt P49441: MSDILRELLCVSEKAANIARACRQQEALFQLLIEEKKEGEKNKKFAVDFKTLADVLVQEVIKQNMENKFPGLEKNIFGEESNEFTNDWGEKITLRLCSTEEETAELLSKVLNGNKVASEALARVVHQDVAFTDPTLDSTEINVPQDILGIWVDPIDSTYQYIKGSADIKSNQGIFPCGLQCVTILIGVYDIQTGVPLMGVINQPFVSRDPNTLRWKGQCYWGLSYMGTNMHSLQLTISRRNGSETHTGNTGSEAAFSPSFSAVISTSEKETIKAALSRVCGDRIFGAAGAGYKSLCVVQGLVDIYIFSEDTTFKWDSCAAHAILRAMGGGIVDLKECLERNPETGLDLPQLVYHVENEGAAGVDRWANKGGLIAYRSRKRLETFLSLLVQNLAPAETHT
# UniProt Q9H0C8: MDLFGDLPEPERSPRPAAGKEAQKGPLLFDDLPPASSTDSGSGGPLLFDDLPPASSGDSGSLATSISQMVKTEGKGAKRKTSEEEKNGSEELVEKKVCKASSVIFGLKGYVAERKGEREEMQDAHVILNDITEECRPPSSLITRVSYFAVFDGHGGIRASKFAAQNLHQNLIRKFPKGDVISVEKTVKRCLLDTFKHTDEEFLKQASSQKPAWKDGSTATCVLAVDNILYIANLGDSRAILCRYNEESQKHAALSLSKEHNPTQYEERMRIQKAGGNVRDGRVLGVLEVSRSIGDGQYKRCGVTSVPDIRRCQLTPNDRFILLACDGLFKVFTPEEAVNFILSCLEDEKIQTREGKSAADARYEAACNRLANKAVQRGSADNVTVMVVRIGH
# UniProt Q96AT1: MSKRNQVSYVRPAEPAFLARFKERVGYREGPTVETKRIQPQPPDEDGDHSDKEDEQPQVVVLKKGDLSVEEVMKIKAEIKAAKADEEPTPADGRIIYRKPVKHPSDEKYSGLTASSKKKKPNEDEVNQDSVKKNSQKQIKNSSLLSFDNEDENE
# UniProt Q9UG01, whole entry: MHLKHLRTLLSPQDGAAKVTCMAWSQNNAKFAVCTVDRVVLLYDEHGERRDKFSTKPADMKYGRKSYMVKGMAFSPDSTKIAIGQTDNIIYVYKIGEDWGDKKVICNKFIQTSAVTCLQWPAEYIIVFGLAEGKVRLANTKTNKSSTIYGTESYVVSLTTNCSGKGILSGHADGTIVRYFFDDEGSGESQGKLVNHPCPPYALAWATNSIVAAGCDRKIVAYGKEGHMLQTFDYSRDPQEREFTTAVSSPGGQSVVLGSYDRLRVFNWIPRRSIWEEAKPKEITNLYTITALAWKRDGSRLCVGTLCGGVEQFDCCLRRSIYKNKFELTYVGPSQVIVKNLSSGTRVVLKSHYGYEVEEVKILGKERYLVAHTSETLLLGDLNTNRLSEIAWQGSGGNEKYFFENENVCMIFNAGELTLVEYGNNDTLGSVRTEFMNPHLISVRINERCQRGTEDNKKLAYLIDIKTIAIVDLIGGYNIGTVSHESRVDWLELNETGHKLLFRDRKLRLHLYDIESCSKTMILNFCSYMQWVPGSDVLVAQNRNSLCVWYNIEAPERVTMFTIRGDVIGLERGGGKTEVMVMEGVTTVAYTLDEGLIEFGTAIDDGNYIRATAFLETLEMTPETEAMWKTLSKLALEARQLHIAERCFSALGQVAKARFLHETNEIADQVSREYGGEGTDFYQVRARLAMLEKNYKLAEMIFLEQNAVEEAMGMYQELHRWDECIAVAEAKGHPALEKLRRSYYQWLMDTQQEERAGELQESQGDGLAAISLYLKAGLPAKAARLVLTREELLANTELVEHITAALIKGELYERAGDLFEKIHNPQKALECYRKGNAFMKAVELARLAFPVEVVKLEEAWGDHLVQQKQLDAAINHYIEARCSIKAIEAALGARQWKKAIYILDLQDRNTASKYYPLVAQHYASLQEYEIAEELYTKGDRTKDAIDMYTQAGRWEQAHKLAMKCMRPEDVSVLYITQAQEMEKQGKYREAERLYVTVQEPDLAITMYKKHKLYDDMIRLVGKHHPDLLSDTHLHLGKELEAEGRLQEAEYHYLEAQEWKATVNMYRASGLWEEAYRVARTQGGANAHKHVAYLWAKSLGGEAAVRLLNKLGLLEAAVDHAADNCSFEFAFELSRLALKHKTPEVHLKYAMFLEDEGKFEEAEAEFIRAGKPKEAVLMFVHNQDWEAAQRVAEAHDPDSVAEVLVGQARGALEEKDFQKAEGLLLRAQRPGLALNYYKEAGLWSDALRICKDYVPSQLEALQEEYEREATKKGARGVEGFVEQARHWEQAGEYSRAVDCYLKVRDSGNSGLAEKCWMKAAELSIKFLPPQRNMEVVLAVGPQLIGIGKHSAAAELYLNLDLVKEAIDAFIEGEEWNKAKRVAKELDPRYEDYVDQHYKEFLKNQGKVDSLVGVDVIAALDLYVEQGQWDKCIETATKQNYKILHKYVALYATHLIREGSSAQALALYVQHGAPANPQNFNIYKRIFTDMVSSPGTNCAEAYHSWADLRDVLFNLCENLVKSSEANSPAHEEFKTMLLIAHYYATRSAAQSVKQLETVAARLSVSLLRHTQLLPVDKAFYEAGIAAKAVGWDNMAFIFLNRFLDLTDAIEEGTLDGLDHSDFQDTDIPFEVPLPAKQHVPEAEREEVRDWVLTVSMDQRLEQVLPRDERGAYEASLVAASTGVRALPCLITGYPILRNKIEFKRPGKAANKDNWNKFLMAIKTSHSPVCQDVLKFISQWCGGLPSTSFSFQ
# UniProt Q9H8X2: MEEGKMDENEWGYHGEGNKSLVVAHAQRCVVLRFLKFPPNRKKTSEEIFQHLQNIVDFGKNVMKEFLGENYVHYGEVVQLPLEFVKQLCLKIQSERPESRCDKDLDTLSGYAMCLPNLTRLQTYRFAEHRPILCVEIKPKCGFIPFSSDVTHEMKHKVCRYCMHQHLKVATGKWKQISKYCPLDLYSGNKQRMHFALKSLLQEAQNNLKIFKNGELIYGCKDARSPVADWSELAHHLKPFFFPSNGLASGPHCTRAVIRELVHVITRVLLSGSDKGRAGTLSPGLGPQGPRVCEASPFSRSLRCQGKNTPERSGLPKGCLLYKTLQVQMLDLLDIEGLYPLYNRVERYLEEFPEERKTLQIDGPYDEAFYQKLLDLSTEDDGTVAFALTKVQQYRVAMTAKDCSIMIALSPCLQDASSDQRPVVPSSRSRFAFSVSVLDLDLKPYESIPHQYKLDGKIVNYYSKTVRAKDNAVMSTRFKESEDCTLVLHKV
# UniProt Q9P2N6: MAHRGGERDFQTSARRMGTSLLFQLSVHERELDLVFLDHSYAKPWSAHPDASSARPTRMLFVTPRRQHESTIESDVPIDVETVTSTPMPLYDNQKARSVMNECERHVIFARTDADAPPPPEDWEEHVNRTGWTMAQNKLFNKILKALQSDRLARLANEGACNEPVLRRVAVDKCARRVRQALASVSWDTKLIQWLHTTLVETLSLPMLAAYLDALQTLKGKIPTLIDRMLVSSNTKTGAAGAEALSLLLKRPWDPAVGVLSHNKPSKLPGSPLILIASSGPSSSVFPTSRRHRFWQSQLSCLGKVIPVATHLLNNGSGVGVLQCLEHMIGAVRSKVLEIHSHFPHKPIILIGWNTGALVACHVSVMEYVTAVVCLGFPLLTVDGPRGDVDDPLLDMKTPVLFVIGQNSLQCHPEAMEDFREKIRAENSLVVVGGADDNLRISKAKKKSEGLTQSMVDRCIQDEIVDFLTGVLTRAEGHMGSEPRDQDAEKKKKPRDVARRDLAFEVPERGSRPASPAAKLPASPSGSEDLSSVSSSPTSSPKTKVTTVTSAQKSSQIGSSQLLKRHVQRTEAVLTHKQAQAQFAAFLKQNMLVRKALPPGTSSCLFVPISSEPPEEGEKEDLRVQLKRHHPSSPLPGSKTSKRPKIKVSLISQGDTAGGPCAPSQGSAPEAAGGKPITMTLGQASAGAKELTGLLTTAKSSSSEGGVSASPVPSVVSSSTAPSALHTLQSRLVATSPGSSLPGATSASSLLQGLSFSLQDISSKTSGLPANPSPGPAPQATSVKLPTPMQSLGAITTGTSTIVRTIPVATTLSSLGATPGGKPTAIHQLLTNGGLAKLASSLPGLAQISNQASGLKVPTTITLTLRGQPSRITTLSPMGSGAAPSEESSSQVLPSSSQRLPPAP
# UniProt P50748: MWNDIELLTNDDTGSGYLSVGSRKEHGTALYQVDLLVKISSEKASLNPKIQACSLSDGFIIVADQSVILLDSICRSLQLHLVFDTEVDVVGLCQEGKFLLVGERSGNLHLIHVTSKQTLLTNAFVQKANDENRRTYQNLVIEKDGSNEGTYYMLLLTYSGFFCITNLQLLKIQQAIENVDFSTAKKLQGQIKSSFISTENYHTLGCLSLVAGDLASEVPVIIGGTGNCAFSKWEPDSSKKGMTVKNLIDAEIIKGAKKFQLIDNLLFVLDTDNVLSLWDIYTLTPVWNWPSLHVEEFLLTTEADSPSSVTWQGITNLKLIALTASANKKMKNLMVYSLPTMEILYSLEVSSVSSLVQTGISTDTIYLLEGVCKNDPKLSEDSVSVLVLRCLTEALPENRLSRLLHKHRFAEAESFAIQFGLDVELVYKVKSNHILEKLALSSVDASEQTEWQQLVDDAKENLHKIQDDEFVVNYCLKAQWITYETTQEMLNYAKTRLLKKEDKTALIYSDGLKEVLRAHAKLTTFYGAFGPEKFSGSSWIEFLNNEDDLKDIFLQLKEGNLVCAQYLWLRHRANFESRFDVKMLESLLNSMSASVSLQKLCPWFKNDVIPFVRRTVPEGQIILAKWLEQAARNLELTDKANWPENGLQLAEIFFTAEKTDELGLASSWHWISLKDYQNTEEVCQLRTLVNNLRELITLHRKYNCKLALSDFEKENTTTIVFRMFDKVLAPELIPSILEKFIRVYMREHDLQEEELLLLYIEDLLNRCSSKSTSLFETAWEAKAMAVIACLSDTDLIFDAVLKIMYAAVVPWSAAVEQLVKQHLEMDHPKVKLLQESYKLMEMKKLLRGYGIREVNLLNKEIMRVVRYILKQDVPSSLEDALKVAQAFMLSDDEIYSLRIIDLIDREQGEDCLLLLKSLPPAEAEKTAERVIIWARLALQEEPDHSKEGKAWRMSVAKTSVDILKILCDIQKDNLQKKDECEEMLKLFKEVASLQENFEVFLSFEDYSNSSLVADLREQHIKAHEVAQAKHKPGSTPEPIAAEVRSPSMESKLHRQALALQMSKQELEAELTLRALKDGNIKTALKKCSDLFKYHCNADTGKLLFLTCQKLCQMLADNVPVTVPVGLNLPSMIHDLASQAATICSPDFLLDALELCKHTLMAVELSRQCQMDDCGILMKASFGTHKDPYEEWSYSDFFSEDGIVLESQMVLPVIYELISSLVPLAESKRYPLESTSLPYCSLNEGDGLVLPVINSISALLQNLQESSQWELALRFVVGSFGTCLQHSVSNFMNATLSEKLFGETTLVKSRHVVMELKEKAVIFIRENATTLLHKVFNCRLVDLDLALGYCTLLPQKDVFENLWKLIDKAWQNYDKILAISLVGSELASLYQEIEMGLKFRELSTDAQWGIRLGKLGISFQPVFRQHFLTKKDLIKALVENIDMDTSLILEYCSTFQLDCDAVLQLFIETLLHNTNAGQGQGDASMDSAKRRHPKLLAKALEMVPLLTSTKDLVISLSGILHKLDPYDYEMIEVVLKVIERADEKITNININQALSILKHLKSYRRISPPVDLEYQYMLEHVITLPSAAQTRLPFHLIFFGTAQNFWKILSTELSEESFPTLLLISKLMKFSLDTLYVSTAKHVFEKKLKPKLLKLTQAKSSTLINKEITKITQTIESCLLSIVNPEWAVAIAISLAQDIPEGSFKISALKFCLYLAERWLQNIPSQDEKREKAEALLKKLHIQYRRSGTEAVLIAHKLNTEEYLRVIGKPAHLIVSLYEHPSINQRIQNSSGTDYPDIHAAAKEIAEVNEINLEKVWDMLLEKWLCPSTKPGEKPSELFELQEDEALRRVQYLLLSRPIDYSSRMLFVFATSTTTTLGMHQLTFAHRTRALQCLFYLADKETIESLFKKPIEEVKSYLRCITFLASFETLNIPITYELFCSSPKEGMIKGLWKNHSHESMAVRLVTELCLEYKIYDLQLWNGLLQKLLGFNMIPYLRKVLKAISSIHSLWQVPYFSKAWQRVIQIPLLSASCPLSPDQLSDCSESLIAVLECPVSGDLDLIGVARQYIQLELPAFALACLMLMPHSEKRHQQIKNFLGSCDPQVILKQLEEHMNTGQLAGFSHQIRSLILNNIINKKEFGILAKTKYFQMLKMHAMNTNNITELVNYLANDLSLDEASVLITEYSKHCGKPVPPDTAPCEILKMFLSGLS
# UniProt O60725, whole entry: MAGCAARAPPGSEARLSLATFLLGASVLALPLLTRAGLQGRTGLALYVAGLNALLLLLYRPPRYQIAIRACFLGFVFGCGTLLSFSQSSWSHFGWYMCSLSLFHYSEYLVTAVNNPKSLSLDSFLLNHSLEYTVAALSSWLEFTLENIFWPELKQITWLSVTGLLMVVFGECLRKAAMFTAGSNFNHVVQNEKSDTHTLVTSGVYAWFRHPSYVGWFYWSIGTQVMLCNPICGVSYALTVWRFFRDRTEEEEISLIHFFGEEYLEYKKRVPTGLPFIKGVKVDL
# The list shows a part of the results.
# Compound: COc1ccc(Cn2ccc3cc(C)c(C(=O)NO)cc32)cc1
# Test: dose-dependent thermal stabilisation call (2D-TPP, DLPTP, 10% FDR) (binary (1 = stabilised)); higher = stabilised by the compound
# Details: system: HL-60 intact cells; concentration range 0.04-10 µM
# Procedure: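 2D thermal proteome profiling in intact HL-60 cells treated with BRD-3811 (0, 0.04, 0.29, 2, 10 uM) for 90 min at 37 C, then heated 3 min at one of 12 temperatures (42-63.9 C). Soluble protein was quantified by TMT10 MS. The value is the DLPTP call of the paper: dose-dependent thermal stabilisation over all temperatures at 10% FDR (F-test of a dose-response against a flat model); one experiment, one call per tested protein.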
row,Target,dose-dependent thermal stabilisation call
1,IFNGR1 (UniProt P15260),inactive: 0
2,KIAA1468 (UniProt Q9P260),inactive: 0
3,KIAA1618 (UniProt Q63HN8),inactive: 0
4,KPNA6 (UniProt O60684),inactive: 0
5,INPP5B (UniProt P32019),inactive: 0
6,KIAA0922 (UniProt A2VDJ0),inactive: 0
7,INTS9 (UniProt Q9NV88),inactive: 0
8,IGHMBP2 (UniProt P38935),inactive: 0
9,KLHL9 (UniProt Q9P2J3),inactive: 0
10,INPP1 (UniProt P49441),inactive: 0
11,IRAK4 (UniProt Q9NWZ3),inactive: 0
12,KIAA0415 (UniProt O43299),inactive: 0
13,ILKAP (UniProt Q9H0C8),inactive: 0
14,KIAA1143 (UniProt Q96AT1),inactive: 0
15,IFT172 (UniProt Q9UG01),inactive: 0
16,KLHL18 (UniProt O94889),inactive: 0
17,IPPK (UniProt Q9H8X2),inactive: 0
18,INPP5D (UniProt Q92835),inactive: 0

row,Target,dose-dependent thermal stabilisation call
1,HTATSF1 (UniProt O43719),inactive: 0
2,KPNA3 (UniProt O00505),inactive: 0
3,INPP5A (UniProt Q14642),inactive: 0
4,KIAA0174 (UniProt P53990),inactive: 0
5,ICA1 (UniProt Q05084),inactive: 0
6,JMJD1B (UniProt Q7LBC6),inactive: 0
7,IDS (UniProt P22304),inactive: 0
8,KIAA1310 (UniProt Q9P2N6),inactive: 0
9,KIAA0841 (UniProt O94927),inactive: 0
10,KNTC1 (UniProt P50748),inactive: 0
11,HYOU1 (UniProt Q9Y4L1),inactive: 0
12,INTS1 (UniProt Q8N201),inactive: 0
13,KIAA1602 (UniProt Q9HCH0),inactive: 0
14,HTATIP2 (UniProt Q9BUP3),inactive: 0
15,KCTD10 (UniProt Q9H3F6),inactive: 0
16,KIAA0467 (UniProt Q5T011),inactive: 0
17,ICMT (UniProt O60725),inactive: 0
18,KIAA0323 (UniProt O15037),inactive: 0

# 2 entries picked at random from the list so far:
row,Target,dose-dependent thermal stabilisation call
15,KCTD10 (UniProt Q9H3F6),inactive: 0
9,KIAA0841 (UniProt O94927),inactive: 0
